Measurements from PMC11131246 (Fluids and Barriers of the CNS, 2024).

Experiment: general procedure: Fmoc solid-phase peptide synthesis; Fmoc-Rink-amide ChemMatrix resin; HBTU, HOBt, DIEA, DIPCI (listed as materials)
Settings: whole synthesis, HPLC peak integration of UV chromatogram, scale of the general procedure 0.1 mmol

Substance	final HPLC purity [%]
CF-APWHLSSQYSRT-amide (carboxyfluorescein N-term, C-amide)	93.68
CF-EEGRLYMRYYSPTTRRYG-amide	90.79
CF-HIQLSPFSQSWR-amide	93.70
CF-KKKKQPPKPKKPKTQEKKKKQPPKPKR-amide	98.04
CF-KWCFRVCYRGICYRRCR-amide	87.61
CF-KYKGAIIGNIK-amide	96.02
CF-KYRSGAITIGY-amide	94.63
CF-LKTLTETLKELTKTLTEL-amide	98.50
CF-NRPDSAQFWLHH-amide	96.68
CF-RPKPQQFFGLM-amide	95.05
CF-YDEEGGGE-amide	98.39
CF-YKEATSTFTNITYRGT-amide	95.32
CF-YTQDFNKFHTFPQTAIGVGAP-amide	94.18
KWCFRVCYRGICYRRCR-NH2 (cysteine pairing not given here)	94.63
PEPTIDE1{A.P.W.H.L.S.S.Q.Y.S.R.T.[am]}$$$$V2.0	95.66
PEPTIDE1{E.E.G.R.L.Y.M.R.Y.Y.S.P.T.T.R.R.Y.G.[am]}$$$$V2.0	97.06
PEPTIDE1{H.I.Q.L.S.P.F.S.Q.S.W.R.[am]}$$$$V2.0	94.53
PEPTIDE1{K.K.K.K.Q.P.P.K.P.K.K.P.K.T.Q.E.K.K.K.K.Q.P.P.K.P.K.R.[am]}$$$$V2.0	98.57
PEPTIDE1{K.Y.K.G.A.I.I.G.N.I.K.[am]}$$$$V2.0	96.54
PEPTIDE1{K.Y.R.S.G.A.I.T.I.G.Y.[am]}$$$$V2.0	97.29
PEPTIDE1{L.K.T.L.T.E.T.L.K.E.L.T.K.T.L.T.E.L.[am]}$$$$V2.0	95.95
PEPTIDE1{N.R.P.D.S.A.Q.F.W.L.H.H.[am]}$$$$V2.0	93.08
PEPTIDE1{R.P.K.P.Q.Q.F.F.G.L.M.[am]}$$$$V2.0	95.23
PEPTIDE1{Y.D.E.E.G.G.G.E.[am]}$$$$V2.0	95.71
PEPTIDE1{Y.K.E.A.T.S.T.F.T.N.I.T.Y.R.G.T.[am]}$$$$V2.0	86.69
YTQDFNKFHTFPQTAIGVGAP-NH2	97.46

Some peptides are written in HELM: one residue between dots, names in brackets for other building blocks, links after the first $. No end group written: not given here.
